Laboratory results: PubChem BioAssay AID652243 (Drosophila RNAi Screening Center, 2013)

Aim: 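Fly genes required for human androgen receptor driven transcription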 (primary screen)
System: Drosophila S2R+ cells
Reagents: long dsRNA against Drosophila genes
Timing: 72 h (48 h, then 24 h hormone)
Treatment: synthetic androgen R1881 at 10 nM for 24 h
Measurement: 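Firefly light from an androgen-responsive reporter and Renilla control light per well, raw and unnormalised, for each of two replicates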
Scale: firefly reporter light: higher = more light from androgen-responsive reporter; Renilla control light: higher = more constitutive control signal (cell number, transfection)
Hit rule: 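Across duplicate plates, a knock-down whose log firefly/Renilla ratio shifted a set fold down or up from the GFP/LacZ control mean was a hit; the downward cut appears as both 1.5 and 3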
Meaning of the calls: active = hit: reporter lowered or raised; inactive = no hit
The screen tested about 24,000 reagents; below is an unselected part of those that have a named target and a result. Over the whole deposit, 246 (1%) were called active. 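Plates not normalised; calls are printed but the firefly/Renilla ratio behind them is not deposited; fold cut for lowering reported inconsistently.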 Raw values vary from plate to plate and are shown uncorrected. Unmarked entries are inactive. Names joined by + are all predicted targets of the reagent. The record does not give: the amount of reagent.

How did the screen score CG1620 (GeneID 35678) [DRSC06603]?
firefly reporter light, replicate 1: 1.46e6; firefly reporter light, replicate 2: 1.25e6; Renilla control light, replicate 1: 2.62e6; Renilla control light, replicate 2: 2.61e6

What did the screen give for CG1620 (GeneID 35678) [DRSC29378]?
firefly reporter light, replicate 1: 2.73e5; firefly reporter light, replicate 2: 2.70e5; Renilla control light, replicate 1: 1.01e6; Renilla control light, replicate 2: 1.01e6

How did the screen score CG7810 (GeneID 34139) [DRSC03072]?
firefly reporter light, replicate 1: 1.32e6; firefly reporter light, replicate 2: 1.23e6; Renilla control light, replicate 1: 2.54e6; Renilla control light, replicate 2: 1.93e6

How did the screen score CG7810 (GeneID 34139) [DRSC27997]?
firefly reporter light, replicate 1: 7.18e5; firefly reporter light, replicate 2: 4.13e5; Renilla control light, replicate 1: 1.56e6; Renilla control light, replicate 2: 1.24e6

What did the screen give for CR31292 (GeneID 10178952) [DRSC13120]?
firefly reporter light, replicate 1: 1.28e5; firefly reporter light, replicate 2: 1.08e5; Renilla control light, replicate 1: 3.12e5; Renilla control light, replicate 2: 3.02e5

Which result is listed for CG8534 (GeneID 41210) [DRSC16439]?
firefly reporter light, replicate 1: 1.19e5; firefly reporter light, replicate 2: 1.11e5; Renilla control light, replicate 1: 1.92e6; Renilla control light, replicate 2: 2.13e6

With Usp16-45 (GeneID 31458) [DRSC18352], how do the results read?
firefly reporter light, replicate 1: 87188; firefly reporter light, replicate 2: 62706; Renilla control light, replicate 1: 7.28e5; Renilla control light, replicate 2: 6.08e5

Which result is listed for Usp16-45 (GeneID 31458) [DRSC26519]?
firefly reporter light, replicate 1: 2.97e5; firefly reporter light, replicate 2: 2.48e5; Renilla control light, replicate 1: 7.36e5; Renilla control light, replicate 2: 4.14e5

How did the screen score sw + Sdic4 + Sdic3 + 2 more [DRSC20696]?
firefly reporter light, replicate 1: 1.00e5; firefly reporter light, replicate 2: 1.25e5; Renilla control light, replicate 1: 3.39e5; Renilla control light, replicate 2: 2.94e5

How did the screen score sw + Sdic4 + Sdic3 + 2 more [DRSC29154]?
firefly reporter light, replicate 1: 1.40e6; firefly reporter light, replicate 2: 9.45e5; Renilla control light, replicate 1: 1.73e6; Renilla control light, replicate 2: 1.42e6

For CG12862 (GeneID 36625) [DRSC06202], how do the results read?
firefly reporter light, replicate 1: 88322; firefly reporter light, replicate 2: 1.23e5; Renilla control light, replicate 1: 1.37e6; Renilla control light, replicate 2: 1.37e6

With Dpm1 (GeneID 35240) [DRSC02018], what was measured?
firefly reporter light, replicate 1: 1.04e5; firefly reporter light, replicate 2: 87351; Renilla control light, replicate 1: 8.02e5; Renilla control light, replicate 2: 1.58e6

What is on record for Actbeta (GeneID 43826) [DRSC17185]?
firefly reporter light, replicate 1: 8.62e5; firefly reporter light, replicate 2: 5.84e5; Renilla control light, replicate 1: 8.54e5; Renilla control light, replicate 2: 5.27e5

What is on record for Actbeta (GeneID 43826) [DRSC17217]?
firefly reporter light, replicate 1: 4.77e5; firefly reporter light, replicate 2: 3.77e5; Renilla control light, replicate 1: 3.61e6; Renilla control light, replicate 2: 3.38e6

How did the screen score CG8405 (GeneID 36772) [DRSC05599]?
firefly reporter light, replicate 1: 2.07e5; firefly reporter light, replicate 2: 2.62e5; Renilla control light, replicate 1: 3.33e5; Renilla control light, replicate 2: 3.35e5

For CG8405 (GeneID 36772) [DRSC07166], what was measured?
firefly reporter light, replicate 1: 60151; firefly reporter light, replicate 2: 1.21e5; Renilla control light, replicate 1: 1.38e6; Renilla control light, replicate 2: 1.38e6

For Pgant2 (GeneID 33556) [DRSC00587], how do the results read?
firefly reporter light, replicate 1: 2.20e5; firefly reporter light, replicate 2: 1.31e5; Renilla control light, replicate 1: 1.32e6; Renilla control light, replicate 2: 8.99e5

What is on record for RpL34b (GeneID 41120) [DRSC16475]?
firefly reporter light, replicate 1: 1.26e5; firefly reporter light, replicate 2: 1.14e5; Renilla control light, replicate 1: 3.02e6; Renilla control light, replicate 2: 2.54e6

For nAChRalpha4 (GeneID 40521) [DRSC11925], how do the results read?
firefly reporter light, replicate 1: 2.54e5; firefly reporter light, replicate 2: 2.40e5; Renilla control light, replicate 1: 5.09e5; Renilla control light, replicate 2: 5.46e5

Which result is listed for nAChRalpha4 (GeneID 40521) [DRSC26817]?
firefly reporter light, replicate 1: 3.91e5; firefly reporter light, replicate 2: 4.13e5; Renilla control light, replicate 1: 5.46e5; Renilla control light, replicate 2: 6.37e5

What did the screen give for armi (GeneID 38427) [DRSC08193]?
firefly reporter light, replicate 1: 1.37e5; firefly reporter light, replicate 2: 1.90e5; Renilla control light, replicate 1: 1.35e6; Renilla control light, replicate 2: 2.31e6

Part of the list above, showing only “Renilla control light, replicate 2”:
RpL34b (GeneID 41120) [DRSC16475]: 2.54e6
nAChRalpha4 (GeneID 40521) [DRSC11925]: 5.46e5
nAChRalpha4 (GeneID 40521) [DRSC26817]: 6.37e5
